The source of these data is PMC7819943, “Rice protein-binding microarrays: a tool to detect cis-acting elements near promoter regions in rice”.

Protein sequences, listed by entry. Tags and fused reporters are not part of them.
UniProt Q0JBA9, entry or part of it: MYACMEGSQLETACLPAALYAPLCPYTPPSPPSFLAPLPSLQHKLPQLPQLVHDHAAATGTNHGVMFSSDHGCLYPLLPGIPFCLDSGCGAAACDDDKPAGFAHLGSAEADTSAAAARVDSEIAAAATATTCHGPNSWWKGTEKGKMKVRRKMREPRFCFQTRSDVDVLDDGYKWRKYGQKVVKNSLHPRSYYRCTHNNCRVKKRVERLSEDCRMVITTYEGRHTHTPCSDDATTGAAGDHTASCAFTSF

The list shows a part of the results.

In this test the target is OsWRKY34 (Oryza sativa, UniProt Q0JBA9 1-250). Nature of the test: protein-binding microarray (RPBM); PBS, 2% BSA, 51.3 ng/ul salmon testes DNA, 50 uM zinc acetate, 200 nM TF, 25 C, 1 h; high values mean tight binding. Particulars: protein: recombinant; tags: N-terminal polyhistidine and DsRed monomer fusion (pET32a); label: CyDye5-dUTP incorporated in the synthesized complementary strand; 3' TTTTT single-stranded linker to array surface; dsDNA, one strand shown. In a few lines: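 For the binding signal, per-feature fluorescence intensity was read in arbitrary units on an Axon 4000B scanner. Before scanning, a 2% BSA-blocked custom Agilent array made double-stranded with Cy5-dUTP was washed after 1 h at 25 °C with 200 nM protein and 50 µM zinc acetate. The proteins were Ni–NTA-purified transcription factors with N-terminal polyhistidine and DsRed fusions, expressed in E. coli BL21-CodonPlus.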
“ATATGTAGTATTCCTATCCTATGTTTGTGGATTCTGACTTCGGAGTCACCTAGTGCAG”: the binding signal was 8200 fluorescence intensity (a.u.).

As to “TTTAGACTTGCTCCGCTTCTTTAAGGCATTTTTGTTTGGACGGAGTCACCTAGTGCAG”, the binding signal was 8650 fluorescence intensity (a.u.).

In the case of “AGCTTAACACGCGCCACTTGCCCCTATTTAGCCGCGCCATCGGAGTCACCTAGTGCAG”, the binding signal is 9920 fluorescence intensity (a.u.).

On to “TTCGTGGTTTCGTTCAGCTTGATTTCGCTTGACACATCGACGGAGTCACCTAGTGCAG”, for which the binding signal is 9110 fluorescence intensity (a.u.).

For the sequence “CTCCGCTCACCAAGCCCTCAAATCTCACCCGCTGCCTCCACGGAGTCACCTAGTGCAG”, the binding signal was 8620 fluorescence intensity (a.u.).

As for “CCAATCACTGTTCGGCGTTCTAATCTGTTTTTTTTCTCCTCGGAGTCACCTAGTGCAG”, the binding signal is 11100 fluorescence intensity (a.u.).

As to “CTGCTCAGCTGCTTCTGCCATGATGTCTCCCTGTGTTTTCCGGAGTCACCTAGTGCAG”, the binding signal was 8270 fluorescence intensity (a.u.).

Regarding “TTGTCCCGTCACTCGTTTCTTTTTTTATCCAGTAATTATTCGGAGTCACCTAGTGCAG”, the binding signal is 12200 fluorescence intensity (a.u.).

As to “TTTGTACCAGCTGCCTTCTTTCCACCAGTCGACGACGACACGGAGTCACCTAGTGCAG”, the binding signal was 11500 fluorescence intensity (a.u.).

In the case of “GAGTAATGAGGGGCTGTTTAGATGGGACTAAAAACTTTTTCGGAGTCACCTAGTGCAG”, the binding signal was 8450 fluorescence intensity (a.u.).

For “AGTTCATCACAGCTTCCCACACTCGTTTTCCCGTCTCGATCGGAGTCACCTAGTGCAG”, the binding signal is 8580 fluorescence intensity (a.u.).

Consider “TTTAGCTGTTCTTTTCAACTCGTACGAAATTTCCTTAGATCGGAGTCACCTAGTGCAG”, for which the binding signal was 9170 fluorescence intensity (a.u.).

Turning to “TTCCTAATTTACTACTACATCTACATGCAAGCTTTGCTCCCGGAGTCACCTAGTGCAG”, the binding signal was 8870 fluorescence intensity (a.u.).

For the sequence “TCATAGGGGTAGTGTTTGCGTGTGTATTCATAGGGGCGAGCGGAGTCACCTAGTGCAG”, the binding signal was 8500 fluorescence intensity (a.u.).

Turning to “ACATTCTCCGCGCCAACACGCATTAACGTTCTGGAACTCTCGGAGTCACCTAGTGCAG”, the binding signal was 13100 fluorescence intensity (a.u.).

With “CATTTACATTTGGTTTCTTGAAACAGAGCAATCTATAGCACGGAGTCACCTAGTGCAG”, the binding signal is 8900 fluorescence intensity (a.u.).

In the case of “TGTCCTTTGTTGTGGTGTGGTGGTGGGCATCTGGACCGTTCGGAGTCACCTAGTGCAG”, the binding signal was 29700 fluorescence intensity (a.u.).

Consider “CCTTCTGCTGCCCTCCCCTCTCTCTCTCTTTCGTTTTTTTCGGAGTCACCTAGTGCAG”, for which the binding signal is 10900 fluorescence intensity (a.u.).

For “GTTGTTTGCATTAATTCATACCTAGGAAGTTTTTTTTAACCGGAGTCACCTAGTGCAG”, the binding signal was 8940 fluorescence intensity (a.u.).

With “TATCTGGTTTTGGGGTTCAGGGCCATGAATTAGATTCGGGCGGAGTCACCTAGTGCAG”, the binding signal was 9940 fluorescence intensity (a.u.).

“CCATCTCCATGACAGCTTAGTTAGTTTCTCTGGTTTGCTACGGAGTCACCTAGTGCAG”: the binding signal was 8070 fluorescence intensity (a.u.).

“CTAGTTTTGGTCTTGTGATAGGTTATTTGCTTACGATTATCGGAGTCACCTAGTGCAG”: the binding signal was 9430 fluorescence intensity (a.u.).

Turning to “AAGACAGCCGCTACGCACACACACGTTTTGTTTATTGCAGCGGAGTCACCTAGTGCAG”, the binding signal was 9860 fluorescence intensity (a.u.).

As to “CATTTCTTTTTGCGCCTGGCATATCCCTCGCGCGACTAACCGGAGTCACCTAGTGCAG”, the binding signal was 10900 fluorescence intensity (a.u.).

For “GCTGTCGATTTCTCCCTCCTTCCTGCCTGTTCTTGATTTTCGGAGTCACCTAGTGCAG”, the binding signal was 8630 fluorescence intensity (a.u.).

Consider “CAGGACCACTTTCTTTCTCCCATCGAGTTCGCGAGGAGGACGGAGTCACCTAGTGCAG”, for which the binding signal was 8830 fluorescence intensity (a.u.).

In the case of “ACTGAGTACTGTTCGGTTGGGTCTGGCATCGGATGTTTCCCGGAGTCACCTAGTGCAG”, the binding signal was 8340 fluorescence intensity (a.u.).

For the sequence “CTCCACTACATTTTGTACGCACCAACACTGGCAAACACTACGGAGTCACCTAGTGCAG”, the binding signal was 9850 fluorescence intensity (a.u.).

For “AAAGACCTCCAACCTTGTATTTGACCTTACTCCATCCGTCCGGAGTCACCTAGTGCAG”, the binding signal is 10600 fluorescence intensity (a.u.).

In the case of “GCAATTAGCATCTATTATGATACCAACAAATTTTCGTTTTCGGAGTCACCTAGTGCAG”, the binding signal was 8830 fluorescence intensity (a.u.).

Take “ATTAATTAGACTCAGAAGATTTGTCTCGCGATTTCCATGCCGGAGTCACCTAGTGCAG”: the binding signal is 9240 fluorescence intensity (a.u.).

With “TCGTGGGAAGGGCAAAGAAAAGACGGGGTGGTGGGCATCGCGGAGTCACCTAGTGCAG”, the binding signal was 8420 fluorescence intensity (a.u.).

In the case of “GGGCCCCTTTGAATCACAGGGTAGAAAAAACATTGGAATACGGAGTCACCTAGTGCAG”, the binding signal is 11600 fluorescence intensity (a.u.).

On to “CTTACCAAATTTTGACTATTTAACAATATTATCAAGTTTTCGGAGTCACCTAGTGCAG”, for which the binding signal is 8100 fluorescence intensity (a.u.).

“ACGTTTTGCCCTATTTTTGCATGCCTACCGATGTACGTGCCGGAGTCACCTAGTGCAG”: the binding signal was 8270 fluorescence intensity (a.u.).

Consider “GGTTTGGGTAGTCCTCTCCGTGGGCCGGCTCCTGCCTTGCCGGAGTCACCTAGTGCAG”, for which the binding signal was 14600 fluorescence intensity (a.u.).

“GACTGGGCCGTTGACCAGACGTGTACCCCACCGGCCAGTCCGGAGTCACCTAGTGCAG”: the binding signal was 9290 fluorescence intensity (a.u.).

As for “ATAAATCACGTGTCTCTTCTCTTGGTTTGCACATTCTTGCCGGAGTCACCTAGTGCAG”, the binding signal is 11700 fluorescence intensity (a.u.).

On to “TGTAAACTGTGCAATTGGTTTTTTCTTCACATTTATTGCTCGGAGTCACCTAGTGCAG”, for which the binding signal is 8400 fluorescence intensity (a.u.).

As to “TTGGTTAGGAACTTGGTATGGTAGGGAGTTGTTGTATTGTCGGAGTCACCTAGTGCAG”, the binding signal was 8670 fluorescence intensity (a.u.).

Take “ATAACAACCCGGCCCCGCCGCCACTCCATCCCCGACTCACCGGAGTCACCTAGTGCAG”: the binding signal was 8520 fluorescence intensity (a.u.).

Turning to “ATCAAATCCAATCCAGGCGGTCCTCGAATTTCCTCCCTTGCGGAGTCACCTAGTGCAG”, the binding signal is 8060 fluorescence intensity (a.u.).

As for “ATTAGCGGAGTGCGTGAGGGCGGTGTTGTATGTGTACCTACGGAGTCACCTAGTGCAG”, the binding signal was 8760 fluorescence intensity (a.u.).

Consider “TTTATATGACCGATCTTCTGTCCTGTCCAATAACAACGATCGGAGTCACCTAGTGCAG”, for which the binding signal is 8060 fluorescence intensity (a.u.).

Regarding “AGCTGCCACAAGCCGAAGGCACGTTGACTTAAAAGAAGCCCGGAGTCACCTAGTGCAG”, the binding signal was 10700 fluorescence intensity (a.u.).

For the sequence “TTTTCCCAACTATATACAGTTTCTAACCCTTGTTTTTTAGCGGAGTCACCTAGTGCAG”, the binding signal was 8570 fluorescence intensity (a.u.).

Take “GGGTGAAAATGTCTGGTTTTGTGGTTTAAGGGTGTAATTCCGGAGTCACCTAGTGCAG”: the binding signal is 8700 fluorescence intensity (a.u.).

As for “AACAACTACTCGTCTTCACTTGCCTGGTTACGAATTGAGCCGGAGTCACCTAGTGCAG”, the binding signal is 9010 fluorescence intensity (a.u.).

Turning to “GCCCGCACCATCCCCTTCCTCGTCCACAACCCCGACATCGCGGAGTCACCTAGTGCAG”, the binding signal is 8290 fluorescence intensity (a.u.).

For the sequence “GTGTCATTCTCCTCACACGCCGGTCTCCATGAGCGAGTTTCGGAGTCACCTAGTGCAG”, the binding signal is 8110 fluorescence intensity (a.u.).

“GAGGGTGGAGGTTGGGTGACCAAGAGTTTATTAATGACAACGGAGTCACCTAGTGCAG”: the binding signal was 10400 fluorescence intensity (a.u.).

As for “GGACCTTATTTTTGTAGCGTGTTTATTTGGGAGTAACTTACGGAGTCACCTAGTGCAG”, the binding signal was 12100 fluorescence intensity (a.u.).

With “CCTATGAAGAAACTTACGCTGACGGCTGACCTAAACGTGCCGGAGTCACCTAGTGCAG”, the binding signal was 11000 fluorescence intensity (a.u.).

For the sequence “CTCTGCACATGGCGCAACATCTATTTTGTACTATTAATTGCGGAGTCACCTAGTGCAG”, the binding signal is 9520 fluorescence intensity (a.u.).
